In all, about 33,000 sequences were measured (“E-score (-0.5 to 0.5)”: median about -8e-05, highest 2% from about 0.23 on). This is one part of the list.
Each sequence was assayed against T1, Nrg2 (UniProt P38082) (assay: PBM E-score (8-mer binding enrichment) (E-score (-0.5 to 0.5)); higher = stronger / more preferred TF binding). Settings: protein concentration: 100 nM; construct: GST-full length.
T1 sequence: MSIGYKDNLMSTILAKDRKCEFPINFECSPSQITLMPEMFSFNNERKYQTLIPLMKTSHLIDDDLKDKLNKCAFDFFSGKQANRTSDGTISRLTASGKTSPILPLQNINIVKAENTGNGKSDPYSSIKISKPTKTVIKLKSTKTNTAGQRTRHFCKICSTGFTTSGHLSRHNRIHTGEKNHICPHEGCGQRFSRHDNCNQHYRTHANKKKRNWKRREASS
Outline: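 The E-score, a modified Wilcoxon-Mann-Whitney statistic, was computed by the Universal PBM Analysis Suite for every ungapped eight-base word pooled with its reverse complement. Scans behind it were normalised with masliner after bound GST-tagged yeast transcription factors were detected with fluorescent anti-GST. The proteins, at about 100-200 nM, had been applied to universal all-10-mer Agilent arrays made double-stranded by primer extension.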

| Sequence | PBM E-score |
| --- | --- |
| ACTTCGAA | 0.0124 |
| ATTGACGC | 0.0308 |
| CTCCCTAC | -0.214 |
| GGGCGCAC | -0.121 |
| CGGATAAC | 0.05 |
| GAACCGAC | -0.0162 |
| CAGTATCC | 0.0489 |
| ATAAAATG | 0.0895 |
| AATATTAC | 0.14 |
| ACTCTGGC | 0.0403 |
| CGTGGTCA | 0.0268 |
| AGCGGGAT | -0.0409 |
| AAGGACCA | -0.0191 |
| ATATCGCA | -0.0927 |
| GATATGGC | -0.112 |
| ATTTCATG | -0.00641 |
| ATTGAGTA | 0.22 |
| AGACAGAA | 0.159 |
| CTGTTGGA | 0.0236 |
| CGAAATGA | 0.127 |
| CAGAAGGC | -0.134 |
| CCGGGAGG | -0.175 |

Some of the entries so far, with each value named:
GAACCGAC
  PBM E-score: -0.0162
CAGTATCC
  PBM E-score: 0.0489
ATAAAATG
  PBM E-score: 0.0895
AATATTAC
  PBM E-score: 0.14

(listing goes on)

| Sequence | PBM E-score |
| --- | --- |
| GGAGACTA | -0.126 |
| ACAGATGG | -0.0336 |
| ACACGTGT | -0.123 |
| ATGGTCGA | -0.144 |
| AGGATGAC | -0.187 |
| GAACGTCA | -0.129 |
| CCGCCAGC | -0.127 |
| GGAAGAGA | -0.0957 |
| CGGTATTA | -0.0616 |
| GTGAAGAA | 0.0239 |
| ATATCTCC | 0.251 |
| ATGGACAG | -0.0815 |
| AGGTGCAA | -0.00317 |
| GTCGAGAA | 0.0187 |
| CCCCAAAG | -0.0786 |
| GGAAATCA | -0.049 |
| CAACGAAG | -0.137 |
| ATATGTTG | 0.158 |
| CTACCAAG | -0.0494 |
| AGCGTACT | 0.00264 |
| AAGGCCAG | 0.099 |
| GCAGTACA | -0.0025 |

Looked up above.
PBM E-score with AAGGCCAG reads 0.099
PBM E-score with GGAAATCA reads -0.049

(list continues)

| Sequence | PBM E-score |
| --- | --- |
| TACTTGAA | -0.128 |
| AGACCAAT | -0.00568 |
| AGGGCGGG | 0.06 |
| GGATTACA | -0.0643 |
| ACACACAC | 0.0306 |
| CGAGAATA | 0.16 |
| TGAGAACA | 0.133 |
| GAAGGGGC | -0.226 |
| CGAAGTAC | 0.103 |
| CATCTTGG | -0.0269 |
| CATCGGCA | -0.11 |
| AGTGATAT | 0.139 |
| ATCCGCTC | -0.138 |
| ATCGCCAT | 0.0989 |
| GTCGCGTA | 0.147 |
| AAACGCGA | 0.0518 |
| AAGCGAGT | 0.0804 |
| ACTTATAG | -0.194 |
| ATAAAGAC | -0.0651 |
| ATTAAAAG | 0.103 |
| AATAGAGG | -0.0108 |
| AAGTTTGG | 0.0644 |

| Sequence | PBM E-score |
| --- | --- |
| ATCTTACG | -0.0429 |
| CCGCCGAG | 0.01 |
| AACTGCGG | 0.00917 |
| CGACAACG | -0.0823 |
| ATTAACGA | 0.128 |
| AACATGTC | -0.00819 |
| GACAGACA | 0.248 |
| ATTATCTG | -0.0132 |
| ATTGCGGC | -0.024 |
| AGTTTATC | 0.116 |
| CTTTGCCA | 0.0655 |
| CTGGAGGC | 0.0336 |
| CCCGGGAA | -0.0196 |
| AATTCTTA | 0.0329 |
| CCATCGTA | 0.122 |
| ATTCGGGA | 0.0112 |
| ACCGCAAA | -0.0189 |
| AGGTTAAC | 0.149 |
| GAACGAAA | 0.178 |
| CATTGACG | -0.0426 |

Source: the supplement of paper PMC3334620
